A short description of the data set: general procedure: peptide synthesis; 4-alkoxybenzyl alcohol resins; Rink amide resin; 1-hydroxybenzotriazole. The note with it: late stage modification step, on LRLRGG-hydrazide.

Substance LRLRGG-Mes (SEQ ID NO: 66) yielded a step yield of 45%.

The values are drawn from patent US20250346938A1 (Wisconsin Alumni Research Foundation, priority 2024, published 2025).
